# According to doi:10.1101/2020.08.13.249979 (bioRxiv, 2020):
# Results are given in words; binding and its absence hold for the method and conditions named. Some binding calls cover weakened binding; strength is not graded here.
# B1: Vipp1_(F197K/L200K) (protein, UniProt B2J6D9 1-258)
# chain: MGLFDRIKRVVSSNLNDLVNKAEDPEKMLEQAILEMQEDLVQLRQGVAQAIAAQKRSEKQYNDAQNEINKWQRNAQLALQKGDENLARQALERKKTYTDTSAALKASLDTQSTQVETLKRNLIQLESKISEAKTKKEMLKARITTAKAQEQLQGMVRGMNTSSAMSAFERMEEKVLMQESRAQALGELAGADLETQKAQKEGGSDVDDELAALKAQMLPPATPVTQAQLPPQQETTPAKSNEVVDAELDSLRKQLDQL
# Molecular target: Vipp1_(F197K/L200K) (Nostoc punctiforme) (UniProt B2J6D9)
# Assay: negative stain EM
binder,measurement,value
B1,binding,binds weakly
